The exact form of at least one protein or probe is not confirmed.
System: human alpha-thrombin + anti-thrombin monoclonal antibody 5020
Test: bead sandwich flow cytometry
Details: 300 nM thrombin, antibody 5020, most robust pair

GGTTGGTGTGGTTGG [TBA-Cy5]
binding result: binds

From paper doi:10.1101/2023.08.08.552518
